# Results taken from US20210395323A1 (UNIVERSIT T STUTTGART, published 2021).
# T1: human TNFR2-Fc fusion protein (human, UniProt P20333 23-257)
# T1 construct: also called huTNFR2-Fc; huTNFR2
# T1 sequence (looked up): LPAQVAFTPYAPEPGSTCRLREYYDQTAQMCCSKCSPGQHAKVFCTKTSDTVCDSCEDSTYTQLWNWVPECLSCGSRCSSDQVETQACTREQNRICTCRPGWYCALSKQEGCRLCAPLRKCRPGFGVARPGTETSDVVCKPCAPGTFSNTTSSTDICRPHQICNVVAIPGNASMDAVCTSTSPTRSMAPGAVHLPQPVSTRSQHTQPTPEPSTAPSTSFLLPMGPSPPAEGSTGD
# T2: TNFR2 on human cells (Kym-1 cells; human CD3+ T cells) (human, UniProt P20333 23-461)
# T2 sequence (looked up): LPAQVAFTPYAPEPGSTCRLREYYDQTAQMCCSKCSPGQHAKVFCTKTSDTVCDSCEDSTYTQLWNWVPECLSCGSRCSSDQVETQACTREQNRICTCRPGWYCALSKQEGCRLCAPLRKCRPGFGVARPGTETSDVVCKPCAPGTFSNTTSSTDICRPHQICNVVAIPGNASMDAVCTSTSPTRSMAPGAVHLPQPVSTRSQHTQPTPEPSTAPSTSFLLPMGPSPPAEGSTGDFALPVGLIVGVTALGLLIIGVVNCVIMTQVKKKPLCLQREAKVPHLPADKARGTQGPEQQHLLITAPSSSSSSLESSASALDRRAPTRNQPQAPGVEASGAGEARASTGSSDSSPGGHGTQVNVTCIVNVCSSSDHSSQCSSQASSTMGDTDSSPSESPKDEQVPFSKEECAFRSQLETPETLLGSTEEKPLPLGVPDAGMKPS
# B1: GCN4-scTNFR2 (human) (ligand)
# chain: RLKQIEDKLEEILSKLYHIENELARIKKLLGERGAPGGGSGGGSGGGSGGGSGGGSGGSEFLASSRTPSDKPVAHVVANPQAEGQLQWLNRRANALLANGVELRDNQLVVPSEGLYLIYSQVLFKGQGCPSTHVLLTHTISRIAVSYQTKVNLLSAIKSPCQRETPEGAEAKPWYEPIYLGGVFQLEKGDRLSAEINRPDYLNFRESGQVYFGIIALGGGGSSSRTPSDKPVAHVVANPQAEGQLQWLNRRANALLANGVELRDNQLVVPSEGLYLIYSQVLFKGQGCPSTHVLLTHTISRIAVSYQTKVNLLSAIKSPCQRETPEGAEAKPWYEPIYLGGVFQLEKGDRLSAEINRPDYLNFRESGQVYFGIIALGGGGSSSRTPSDKPVAHVVANPQAEGQLQWLNRRANALLANGVELRDNQLVVPSEGLYLIYSQVLFKGQGCPSTHVLLTHTISRIAVSYQTKVNLLSAIKSPCQRETPEGAEAKPWYEPIYLGGVFQLEKGDRLSAEINRPDYLNFRESGQVYFGIIAL
# Experiments:
# [1] = molecular target: T1, human TNFR2-Fc fusion protein; experiment: ELISA, huTNFR2-Fc coated at 1 µg/ml, bound protein detected with anti-TNF F6C5
# Experimental: ELISA plates (Greiner, Frickenhausen, Germany) were coated with huTNFR1-Fc, mTNFR1-Fc, huTNFR2-Fc or mTNFR2-Fc fusion proteins at 1 μg/ml in PBS and incubated at 4° C. overnight. Residual binding sites were blocked with 2% skim milk powder in PBS at RT for 2 hours. ScTNFR2 and the complexes were diluted in 2% skim milk powder in PBS and added at concentrations in the range of 10⁻³ to 10 nM and incubated for 1 hour at RT. Between each step, non-bound proteins were removed by washing 4 times with 0.005% Tween-20 in PBS.
# Bound proteins were detected with mouse monoclonal antibodies to TNF (clone F6C5; 1 μg/ml; incubation for 1 hour at RT) and HRP-conjugated anti-mouse IgG antibodies (diluted 1:10000; incubation for 1 hour at RT), followed by incubation with tetramethylbenzidine (TMB) substrate solution. Reaction was stopped by addition of 1 M H₂SO₄ and the absorbance at 450 nm was determined with a Multiskan FC absorbance reader (Thermo Scientific, Karlsruhe, Germany) and data were analyzed using the software Microsoft Excel and GraphPad Prism 4 (GraphPad, La Jolla, Calif.) (FIG. 5). In Table 3, the calculated EC₅₀ values for the binding of TNF, scTNFR2 and the complexes to immobilized huTNFR2 and mTNFR2 based on the ELISA assay are summarized.
# [2] = molecular target: T2, TNFR2 on human cells (Kym-1 cells; …); experiment: cell-based or functional assay
binder,measurement,setting,value
B1,EC50,[1],0.0312 nM
same,EC50 values (nM) of cell death induction using Kym-1 cells,[2],0.0025 nM
